Patent US20240329050A1, “METHODS OF DETECTING PENTASACCHARIDES AND TREATMENT AND MONITORING OF LYSOSOMAL STORAGE DISEASE” (Washington University, priority 2021, published 2024)

Assay: Profiling of oligosaccharides in cat CNS samples
Details: for Detection in CNS of GM1 gangliosidosis cat model: cat CNS samples

| Structure (SMILES) | Detection in CNS of GM1 gangliosidosis cat model | Elevation in GM1 gangliosidosis cat CNS (brain stem, cerebellum, spinal cord, frontal, occipital, parietal, temporal cortex, thalamus) [fold] |
| --- | --- | --- |
| CC(=O)N[C@H]1[C@H](O[C@@H]2[C@@H](OC[C@H]3O[C@@H](O[C@H]4[C@H](O)[C@@H](NC(C)=O)C(O)O[C@@H]4CO)[C@@H](O)[C@@H](O)[C@@H]3O)O[C@H](CO)[C@@H](O)[C@@H]2O)O[C@H](CO)[C@@H](O[C@@H]2O[C@H](CO)[C@H](O)[C@H](O)[C@H]2O)[C@@H]1O (stereo partly drawn) [H3N2a, O-β-D-galactopyranosyl-(1→4)-O-(2-acetamido-2-deoxy-β-D-glucopyranosyl)-(1→2)-O-α-D-mannopyranosyl-(1→6)-O-β-D-mannopyranosyl-(1→4)-2-acetamido-2-deoxy-α,β-D-glucopyranose] | undetectable |  |
| CC(=O)N[C@H]1[C@H](O[C@@H]2[C@@H](O[C@@H]3[C@H](O)[C@H](O[C@H]4[C@H](O)[C@@H](NC(C)=O)C(O)O[C@@H]4CO)O[C@H](CO)[C@H]3O)O[C@H](CO)[C@@H](O)[C@@H]2O)O[C@H](CO)[C@@H](O[C@@H]2O[C@H](CO)[C@H](O)[C@H](O)[C@H]2O)[C@@H]1O (stereo partly drawn) [H3N2b, O-β-D-galactopyranosyl-(1→4)-O-(2-acetamido-2-deoxy-β-D-glucopyranosyl)-(1→2)-O-α-D-mannopyranosyl-(1→3)-O-β-D-mannopyranosyl-(1→4)-2-acetamido-2-deoxy-α,β-D-glucopyranose] | detectable | > 100 |
